{"source": "PubChem BioAssay AID1508597 | Cure First, 2020", "assay": "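Knock-downs altering ovarian cancer cell survival with or without PARP inhibitor rucaparib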 (primary screen)", "cell system": "human ovarian carcinoma lines grown from tumours: OCI-P5x (papillary serous) and OCI-C5x (clear cell)", "reagents": "siRNA pool against human genes, 1.25 pmol siRNA per well", "time to read-out": "72 h or 96 h, depending on the cell culture", "challenge": "rucaparib 20 µM (about IC30) or vehicle, present until read-out", "measured": "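ATP luminescence measured at 72 or 96 h according to the culture, then normalised and expressed as percent viability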", "direction": "viability, normalised: higher = more viable cells remaining", "rule for the call": "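a well counts as a hit if its normalised viability is under 80 percent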", "calls": "active = viability under 80%; inactive = viability 80% or more", "note": "Shown is a random part of about 2,100 deposited reagents. 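Calls flag viability under 80% in either arm, not effects specific to rucaparib; the reference for percent is not stated.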 Reagent sequences are not shown. Not stated in the record: the 100% reference."}
{"gene symbol": "PIN1 (peptidylprolyl cis/trans isomerase, NIMA-interacting 1)", "rucaparib or vehicle": "Rucaparib", "cell line": "OCI-C5x (clear cell)", "technical replicate": "1", "viability, normalised (%)": 67.8, "Outcome": "active"}
{"gene symbol": "PIN1 (peptidylprolyl cis/trans isomerase, NIMA-interacting 1)", "rucaparib or vehicle": "Rucaparib", "cell line": "OCI-C5x (clear cell)", "technical replicate": "2", "viability, normalised (%)": 61.7, "Outcome": "active"}
{"gene symbol": "PIN1 (peptidylprolyl cis/trans isomerase, NIMA-interacting 1)", "rucaparib or vehicle": "Rucaparib", "cell line": "OCI-C5x (clear cell)", "technical replicate": "3", "viability, normalised (%)": 49.5, "Outcome": "active"}
{"gene symbol": "PIN1 (peptidylprolyl cis/trans isomerase, NIMA-interacting 1)", "rucaparib or vehicle": "Rucaparib", "cell line": "OCI-P5x (serous)", "technical replicate": "1", "viability, normalised (%)": 78.8, "Outcome": "active"}
{"gene symbol": "PIN1 (peptidylprolyl cis/trans isomerase, NIMA-interacting 1)", "rucaparib or vehicle": "Rucaparib", "cell line": "OCI-P5x (serous)", "technical replicate": "2", "viability, normalised (%)": 73.9, "Outcome": "active"}
{"gene symbol": "PIN1 (peptidylprolyl cis/trans isomerase, NIMA-interacting 1)", "rucaparib or vehicle": "Rucaparib", "cell line": "OCI-P5x (serous)", "technical replicate": "3", "viability, normalised (%)": 73.6, "Outcome": "active"}
{"gene symbol": "PIN1 (peptidylprolyl cis/trans isomerase, NIMA-interacting 1)", "rucaparib or vehicle": "Vehicle", "cell line": "OCI-C5x (clear cell)", "technical replicate": "1", "viability, normalised (%)": 136, "Outcome": "inactive"}
{"gene symbol": "PIN1 (peptidylprolyl cis/trans isomerase, NIMA-interacting 1)", "rucaparib or vehicle": "Vehicle", "cell line": "OCI-C5x (clear cell)", "technical replicate": "2", "viability, normalised (%)": 74.6, "Outcome": "active"}
{"gene symbol": "PIN1 (peptidylprolyl cis/trans isomerase, NIMA-interacting 1)", "rucaparib or vehicle": "Vehicle", "cell line": "OCI-C5x (clear cell)", "technical replicate": "3", "viability, normalised (%)": 69.5, "Outcome": "active"}
{"gene symbol": "PIN1 (peptidylprolyl cis/trans isomerase, NIMA-interacting 1)", "rucaparib or vehicle": "Vehicle", "cell line": "OCI-P5x (serous)", "technical replicate": "1", "viability, normalised (%)": 72.9, "Outcome": "active"}
{"gene symbol": "PIN1 (peptidylprolyl cis/trans isomerase, NIMA-interacting 1)", "rucaparib or vehicle": "Vehicle", "cell line": "OCI-P5x (serous)", "technical replicate": "2", "viability, normalised (%)": 60, "Outcome": "active"}
{"gene symbol": "PIN1 (peptidylprolyl cis/trans isomerase, NIMA-interacting 1)", "rucaparib or vehicle": "Vehicle", "cell line": "OCI-P5x (serous)", "technical replicate": "3", "viability, normalised (%)": 76, "Outcome": "active"}
{"gene symbol": "PYGO1 (pygopus family PHD finger 1)", "rucaparib or vehicle": "Rucaparib", "cell line": "OCI-C5x (clear cell)", "technical replicate": "1", "viability, normalised (%)": 31.7, "Outcome": "active"}
{"gene symbol": "PYGO1 (pygopus family PHD finger 1)", "rucaparib or vehicle": "Rucaparib", "cell line": "OCI-C5x (clear cell)", "technical replicate": "2", "viability, normalised (%)": 41, "Outcome": "active"}
{"gene symbol": "PYGO1 (pygopus family PHD finger 1)", "rucaparib or vehicle": "Rucaparib", "cell line": "OCI-C5x (clear cell)", "technical replicate": "3", "viability, normalised (%)": 37.5, "Outcome": "active"}
{"gene symbol": "PYGO1 (pygopus family PHD finger 1)", "rucaparib or vehicle": "Rucaparib", "cell line": "OCI-P5x (serous)", "technical replicate": "1", "viability, normalised (%)": 27.7, "Outcome": "active"}
{"gene symbol": "PYGO1 (pygopus family PHD finger 1)", "rucaparib or vehicle": "Rucaparib", "cell line": "OCI-P5x (serous)", "technical replicate": "2", "viability, normalised (%)": 31.4, "Outcome": "active"}
{"gene symbol": "PYGO1 (pygopus family PHD finger 1)", "rucaparib or vehicle": "Rucaparib", "cell line": "OCI-P5x (serous)", "technical replicate": "3", "viability, normalised (%)": 39.3, "Outcome": "active"}
{"gene symbol": "PYGO1 (pygopus family PHD finger 1)", "rucaparib or vehicle": "Vehicle", "cell line": "OCI-C5x (clear cell)", "technical replicate": "1", "viability, normalised (%)": 49.3, "Outcome": "active"}
{"gene symbol": "PYGO1 (pygopus family PHD finger 1)", "rucaparib or vehicle": "Vehicle", "cell line": "OCI-C5x (clear cell)", "technical replicate": "2", "viability, normalised (%)": 36.5, "Outcome": "active"}
{"gene symbol": "PYGO1 (pygopus family PHD finger 1)", "rucaparib or vehicle": "Vehicle", "cell line": "OCI-C5x (clear cell)", "technical replicate": "3", "viability, normalised (%)": 36.2, "Outcome": "active"}
{"gene symbol": "PYGO1 (pygopus family PHD finger 1)", "rucaparib or vehicle": "Vehicle", "cell line": "OCI-P5x (serous)", "technical replicate": "1", "viability, normalised (%)": 46.6, "Outcome": "active"}
{"gene symbol": "PYGO1 (pygopus family PHD finger 1)", "rucaparib or vehicle": "Vehicle", "cell line": "OCI-P5x (serous)", "technical replicate": "2", "viability, normalised (%)": 46.8, "Outcome": "active"}
{"gene symbol": "PYGO1 (pygopus family PHD finger 1)", "rucaparib or vehicle": "Vehicle", "cell line": "OCI-P5x (serous)", "technical replicate": "3", "viability, normalised (%)": 51.9, "Outcome": "active"}

5 entries from above, sorted by “viability, normalised (%)”, low to high.
{"gene symbol": "PIN1 (peptidylprolyl cis/trans isomerase, NIMA-interacting 1)", "rucaparib or vehicle": "Rucaparib", "cell line": "OCI-C5x (clear cell)", "technical replicate": "3", "viability, normalised (%)": 49.5, "Outcome": "active"}
{"gene symbol": "PIN1 (peptidylprolyl cis/trans isomerase, NIMA-interacting 1)", "rucaparib or vehicle": "Rucaparib", "cell line": "OCI-P5x (serous)", "technical replicate": "3", "viability, normalised (%)": 73.6, "Outcome": "active"}
{"gene symbol": "PIN1 (peptidylprolyl cis/trans isomerase, NIMA-interacting 1)", "rucaparib or vehicle": "Rucaparib", "cell line": "OCI-P5x (serous)", "technical replicate": "2", "viability, normalised (%)": 73.9, "Outcome": "active"}
{"gene symbol": "PIN1 (peptidylprolyl cis/trans isomerase, NIMA-interacting 1)", "rucaparib or vehicle": "Rucaparib", "cell line": "OCI-P5x (serous)", "technical replicate": "1", "viability, normalised (%)": 78.8, "Outcome": "active"}
{"gene symbol": "PIN1 (peptidylprolyl cis/trans isomerase, NIMA-interacting 1)", "rucaparib or vehicle": "Vehicle", "cell line": "OCI-C5x (clear cell)", "technical replicate": "1", "viability, normalised (%)": 136, "Outcome": "inactive"}

Additional records:
{"gene symbol": "ZNF623 (zinc finger protein 623)", "rucaparib or vehicle": "Rucaparib", "cell line": "OCI-C5x (clear cell)", "technical replicate": "1", "viability, normalised (%)": 63.5, "Outcome": "active"}
{"gene symbol": "ZNF623 (zinc finger protein 623)", "rucaparib or vehicle": "Rucaparib", "cell line": "OCI-C5x (clear cell)", "technical replicate": "2", "viability, normalised (%)": 65.2, "Outcome": "active"}
{"gene symbol": "ZNF623 (zinc finger protein 623)", "rucaparib or vehicle": "Rucaparib", "cell line": "OCI-C5x (clear cell)", "technical replicate": "3", "viability, normalised (%)": 59.5, "Outcome": "active"}
{"gene symbol": "ZNF623 (zinc finger protein 623)", "rucaparib or vehicle": "Rucaparib", "cell line": "OCI-P5x (serous)", "technical replicate": "1", "viability, normalised (%)": 78.7, "Outcome": "active"}
{"gene symbol": "ZNF623 (zinc finger protein 623)", "rucaparib or vehicle": "Rucaparib", "cell line": "OCI-P5x (serous)", "technical replicate": "2", "viability, normalised (%)": 59.1, "Outcome": "active"}
{"gene symbol": "ZNF623 (zinc finger protein 623)", "rucaparib or vehicle": "Rucaparib", "cell line": "OCI-P5x (serous)", "technical replicate": "3", "viability, normalised (%)": 73, "Outcome": "active"}
{"gene symbol": "ZNF623 (zinc finger protein 623)", "rucaparib or vehicle": "Vehicle", "cell line": "OCI-C5x (clear cell)", "technical replicate": "1", "viability, normalised (%)": 68.4, "Outcome": "active"}
{"gene symbol": "ZNF623 (zinc finger protein 623)", "rucaparib or vehicle": "Vehicle", "cell line": "OCI-C5x (clear cell)", "technical replicate": "2", "viability, normalised (%)": 56.4, "Outcome": "active"}
{"gene symbol": "ZNF623 (zinc finger protein 623)", "rucaparib or vehicle": "Vehicle", "cell line": "OCI-C5x (clear cell)", "technical replicate": "3", "viability, normalised (%)": 58.1, "Outcome": "active"}
{"gene symbol": "ZNF623 (zinc finger protein 623)", "rucaparib or vehicle": "Vehicle", "cell line": "OCI-P5x (serous)", "technical replicate": "1", "viability, normalised (%)": 84.9, "Outcome": "inactive"}
{"gene symbol": "ZNF623 (zinc finger protein 623)", "rucaparib or vehicle": "Vehicle", "cell line": "OCI-P5x (serous)", "technical replicate": "2", "viability, normalised (%)": 83.6, "Outcome": "inactive"}
{"gene symbol": "ZNF623 (zinc finger protein 623)", "rucaparib or vehicle": "Vehicle", "cell line": "OCI-P5x (serous)", "technical replicate": "3", "viability, normalised (%)": 79.1, "Outcome": "active"}
{"gene symbol": "CETN2 (centrin 2)", "rucaparib or vehicle": "Rucaparib", "cell line": "OCI-C5x (clear cell)", "technical replicate": "1", "viability, normalised (%)": 43.3, "Outcome": "active"}
{"gene symbol": "CETN2 (centrin 2)", "rucaparib or vehicle": "Rucaparib", "cell line": "OCI-C5x (clear cell)", "technical replicate": "2", "viability, normalised (%)": 45.4, "Outcome": "active"}
{"gene symbol": "CETN2 (centrin 2)", "rucaparib or vehicle": "Rucaparib", "cell line": "OCI-C5x (clear cell)", "technical replicate": "3", "viability, normalised (%)": 53.1, "Outcome": "active"}
{"gene symbol": "CETN2 (centrin 2)", "rucaparib or vehicle": "Rucaparib", "cell line": "OCI-P5x (serous)", "technical replicate": "1", "viability, normalised (%)": 47.8, "Outcome": "active"}
{"gene symbol": "CETN2 (centrin 2)", "rucaparib or vehicle": "Rucaparib", "cell line": "OCI-P5x (serous)", "technical replicate": "2", "viability, normalised (%)": 53.7, "Outcome": "active"}
{"gene symbol": "CETN2 (centrin 2)", "rucaparib or vehicle": "Rucaparib", "cell line": "OCI-P5x (serous)", "technical replicate": "3", "viability, normalised (%)": 44.8, "Outcome": "active"}
{"gene symbol": "CETN2 (centrin 2)", "rucaparib or vehicle": "Vehicle", "cell line": "OCI-C5x (clear cell)", "technical replicate": "1", "viability, normalised (%)": 38.6, "Outcome": "active"}
{"gene symbol": "CETN2 (centrin 2)", "rucaparib or vehicle": "Vehicle", "cell line": "OCI-C5x (clear cell)", "technical replicate": "2", "viability, normalised (%)": 43, "Outcome": "active"}
{"gene symbol": "CETN2 (centrin 2)", "rucaparib or vehicle": "Vehicle", "cell line": "OCI-C5x (clear cell)", "technical replicate": "3", "viability, normalised (%)": 41.5, "Outcome": "active"}
{"gene symbol": "CETN2 (centrin 2)", "rucaparib or vehicle": "Vehicle", "cell line": "OCI-P5x (serous)", "technical replicate": "1", "viability, normalised (%)": 42, "Outcome": "active"}
{"gene symbol": "CETN2 (centrin 2)", "rucaparib or vehicle": "Vehicle", "cell line": "OCI-P5x (serous)", "technical replicate": "2", "viability, normalised (%)": 42.8, "Outcome": "active"}
{"gene symbol": "CETN2 (centrin 2)", "rucaparib or vehicle": "Vehicle", "cell line": "OCI-P5x (serous)", "technical replicate": "3", "viability, normalised (%)": 47.7, "Outcome": "active"}
